No constants are given. Whether binding was seen depends on the method and setting. Binding seen in cells or lysates may run through a third protein. A result given as binding can be weak or reduced; the word gives no strength. Where a sequence is shown, tags or fusion partners need not be part of it.
Biological target: T1, InvC, full-length, C-terminal Strep-tag (Salmonella Typhimurium strain SL1344) (UniProt P0A1B9)
T1 sequence: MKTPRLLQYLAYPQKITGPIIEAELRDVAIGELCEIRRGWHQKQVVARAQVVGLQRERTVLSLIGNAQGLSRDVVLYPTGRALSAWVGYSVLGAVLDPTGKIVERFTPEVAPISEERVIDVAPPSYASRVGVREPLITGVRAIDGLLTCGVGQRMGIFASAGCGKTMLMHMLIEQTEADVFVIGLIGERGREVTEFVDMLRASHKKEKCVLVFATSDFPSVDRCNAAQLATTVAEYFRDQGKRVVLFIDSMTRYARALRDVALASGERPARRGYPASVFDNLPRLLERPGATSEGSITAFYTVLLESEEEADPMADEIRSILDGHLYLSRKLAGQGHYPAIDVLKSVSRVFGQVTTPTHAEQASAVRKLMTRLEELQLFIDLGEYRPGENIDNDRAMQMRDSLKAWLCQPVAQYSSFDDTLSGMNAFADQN
Test: pull-down

For “OrgB C-terminal half (residues 106-226), His-tagged (Salmonella Typhimurium strain SL1344) (domain or fragment)”, the binding was “binds”.
For “OrgB N-terminal half (residues 1-105), His-tagged (Salmonella Typhimurium strain SL1344) (domain or fragment)”, the binding was “binds weakly”.

Source: paper doi:10.1101/648071 (bioRxiv, 2019)
